Measurements as given in US6337317B1, “Antimicrobial peptides and methods of use thereof” (priority 2000, dated 2002).

What was measured:
[1] = Tryptophan fluorescence and KI quenching, POPC liposomes; set-up: key to Accessibility to quencher KI: −: the fluorescence of tryptophan residue could not be quenched by the aqueous quencher KI; +: the fluorescence of tryptophan residue was suppressed by the aqueous quencher KI in a concentration dependent manner
[2] = Langmuir monolayer assay, mixed lipids mimicking E. coli cytoplasmic membrane; settings: initial pressure 20±1 mN/m, 23° C.
[3] = Tryptophan fluorescence and KI quenching, POPC/POPG liposomes; set-up: key to Accessibility to quencher KI: −: the fluorescence of tryptophan residue could not be quenched by the aqueous quencher KI; +: the fluorescence of tryptophan residue was suppressed by the aqueous quencher KI in a concentration dependent manner; settings: for Emax (nm) (POPC/ POPG): POPC/POPG 7:3 liposomes; for Accessibility to quencher KI / Intensity change (fold): POPC/POPG liposomes; for Emax (nm) (HEPES): tryptophan fluorescence emission maximum in HEPES buffer

CC(C)[C@@H]1NC(=O)[C@H](CCCNC(=N)N)NC(=O)[C@H](Cc2ccccc2)NC(=O)[C@@H](NC(=O)[C@H](Cc2c[nH]c3ccccc23)NC(=O)[C@H](CCCNC(=N)N)NC(=O)[C@@H](N)CCCNC(=N)N)CSSC[C@@H](C(=O)N[C@@H](CCCNC(=N)N)C(N)=O)NC(=O)[C@H](CCCCN)NC(=O)[C@H](Cc2ccc(O)cc2)NC(=O)[C@H](CCCNC(=N)N)NC(=O)[C@@H]2CSSC[C@H](NC1=O)C(=O)N[C@@H](Cc1ccc(O)cc1)C(=O)N[C@@H](CCCCN)C(=O)NCC(=O)N[C@@H](Cc1ccccc1)C(=O)N2 [SEQ ID NO:4, RRWCFRVCYKGFCRYKCR] (HELM PEPTIDE1{R.R.W.C.F.R.V.C.Y.K.G.F.C.R.Y.K.C.R.[am]}$PEPTIDE1,PEPTIDE1,4:R3-17:R3|PEPTIDE1,PEPTIDE1,8:R3-13:R3$$$V2.0)
Accessibility to quencher KI [1]: + | Emax in POPC (nm) [1]: 353 nm | Intensity change (fold) [1]: 1.5 fold | increase of tryptophan fluorescence in POPC liposomes compared to HEPES buffer [1]: about 50% | plateau Δπ (surface pressure change) [2]: 4.7 mN/m | Emax (nm) (POPC/ POPG) [3]: 343 nm | Accessibility to quencher KI [3]: − | Intensity change (fold) [3]: 2.4 fold | Emax (nm) (HEPES) [3]: 354 nm

CC(C)[C@@H]1NC(=O)[C@H](CCCNC(=N)N)NC(=O)[C@H](Cc2ccccc2)NC(=O)[C@@H](NC(=O)[C@H](Cc2c[nH]c3ccccc23)NC(=O)[C@H](CCCNC(=N)N)NC(=O)[C@@H](N)CCCNC(=N)N)CSSC[C@@H](C(=O)N[C@@H](CCCNC(=N)N)C(N)=O)NC(=O)[C@H](CCCCN)NC(=O)[C@H](CCCNC(=N)N)NC(=O)[C@H](Cc2ccc(O)cc2)NC(=O)[C@@H]2CSSC[C@H](NC1=O)C(=O)N[C@@H](Cc1ccc(O)cc1)C(=O)N[C@@H](CCCNC(=N)N)C(=O)NCC(=O)N[C@@H](Cc1ccccc1)C(=O)N2 [Polyphemusin I, reference compound] (HELM PEPTIDE1{R.R.W.C.F.R.V.C.Y.R.G.F.C.Y.R.K.C.R.[am]}$PEPTIDE1,PEPTIDE1,4:R3-17:R3|PEPTIDE1,PEPTIDE1,8:R3-13:R3$$$V2.0; N-terminus and C-terminus assumed)
Accessibility to quencher KI [1]: + | Emax in POPC (nm) [1]: 353 nm | Intensity change (fold) [1]: −0.5 fold | plateau Δπ (surface pressure change) [2]: 7.4 mN/m | Emax (nm) (POPC/ POPG) [3]: 342 nm | Accessibility to quencher KI [3]: − | Intensity change (fold) [3]: 1.3 fold | Emax (nm) (HEPES) [3]: 356 nm

CC(C)[C@@H]1NC(=O)[C@H](CCCNC(=N)N)NC(=O)[C@H](Cc2ccccc2)NC(=O)[C@@H](NC(=O)[C@H](Cc2c[nH]c3ccccc23)NC(=O)[C@H](CCCNC(=N)N)NC(=O)[C@@H](N)Cc2ccccc2)CSSC[C@@H](C(=O)N[C@@H](CCCNC(=N)N)C(N)=O)NC(=O)[C@H](CCCCN)NC(=O)[C@H](Cc2ccc(O)cc2)NC(=O)[C@H](CCCNC(=N)N)NC(=O)[C@@H]2CSSC[C@H](NC1=O)C(=O)N[C@@H](Cc1ccc(O)cc1)C(=O)N[C@@H](CCCCN)C(=O)NCC(=O)N[C@@H](CCCNC(=N)N)C(=O)N2 [SEQ ID NO:3, FRWCFRVCYKGRCRYKCR] (HELM PEPTIDE1{F.R.W.C.F.R.V.C.Y.K.G.R.C.R.Y.K.C.R.[am]}$PEPTIDE1,PEPTIDE1,4:R3-17:R3|PEPTIDE1,PEPTIDE1,8:R3-13:R3$$$V2.0)
Accessibility to quencher KI [1]: + | Emax in POPC (nm) [1]: 350 nm | Intensity change (fold) [1]: −0.7 fold | plateau Δπ (surface pressure change) [2]: 4.5 mN/m | Emax (nm) (POPC/ POPG) [3]: 338 nm | Accessibility to quencher KI [3]: − | Intensity change (fold) [3]: 1.9 fold | Emax (nm) (HEPES) [3]: 353 nm

CC(C)[C@@H]1NC(=O)[C@H](CCCNC(=N)N)NC(=O)[C@H](Cc2ccccc2)NC(=O)[C@@H](NC(=O)[C@H](Cc2c[nH]c3ccccc23)NC(=O)[C@H](CCCNC(=N)N)NC(=O)[C@@H](N)CCCNC(=N)N)CSSC[C@@H](C(=O)N[C@@H](CCCNC(=N)N)C(N)=O)NC(=O)[C@H](CCCCN)NC(=O)[C@H](CCCNC(=N)N)NC(=O)[C@H](Cc2ccc(O)cc2)NC(=O)[C@@H]2CSSC[C@H](NC1=O)C(=O)N[C@@H](Cc1ccc(O)cc1)C(=O)N[C@@H](CCCNC(=N)N)C(=O)NCC(=O)N[C@@H](CCCNC(=N)N)C(=O)N[C@@H](Cc1ccccc1)C(=O)N2 [SEQ ID NO:11, RRWCFRVCYRGRFCYRKCR] (HELM PEPTIDE1{R.R.W.C.F.R.V.C.Y.R.G.R.F.C.Y.R.K.C.R.[am]}$PEPTIDE1,PEPTIDE1,4:R3-18:R3|PEPTIDE1,PEPTIDE1,8:R3-14:R3$$$V2.0)
Accessibility to quencher KI [1]: + | Emax in POPC (nm) [1]: 354 nm | Intensity change (fold) [1]: 0.7 fold | plateau Δπ (surface pressure change) [2]: 5.2 mN/m | Emax (nm) (POPC/ POPG) [3]: 342 nm | Accessibility to quencher KI [3]: − | Intensity change (fold) [3]: 3.7 fold | Emax (nm) (HEPES) [3]: 356 nm

Where a SMILES comes first, the peptide text is derived from it.
